This is one part of the list.
Assays:
Assay in all cases: glycan array binding signal (z-score within array); higher = stronger binding
Settings in all cases: glycan notation: IUPAC condensed, linker removed
Gal6S(b1-4)GlcNAc6S = biological target: Gal6S(b1-4)GlcNAc6S
Summary of the method: (§1)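 Glycan array data came from 3228 arrays in the Consortium for Functional Glycomics database, and only arrays with an available protein sequence were kept. Glycan names were put into IUPAC-condensed notation, and columns mapping to the same glycan were averaged. The binding signal is a within-array Z-score, averaged across arrays of one protein sequence run at different concentrations or buffers and across linkers. A negative Z-score can be read as non-binding.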

GalNAc(a1-3)Gal = biological target: GalNAc(a1-3)Gal
Summary of the method: as §1

GalNAc(a1-3)GalNAc = biological target: GalNAc(a1-3)GalNAc
Summary of the method: as §1

[1] = biological target: GalNAc(a1-3)GalNAc(a1-3)Gal(a1-4)Gal(b1-4)GlcNAc
Summary of the method: as §1

GalNAc(b1-3)Gal = biological target: GalNAc(b1-3)Gal
Summary of the method: as §1

[2] = biological target: GalNAc(b1-3)Gal(a1-4)Gal(b1-4)GlcNAc
Summary of the method: as §1

[3] = biological target: GalNAc(b1-3)Gal(a1-4)Gal(b1-4)GlcNAc(b1-3)Gal(b1-4)Glc
Summary of the method: as §1

[4] = biological target: GalNAc(b1-3)Gal(a1-6)Gal(b1-4)Glc
Summary of the method: as §1

GalNAc(b1-3)GalNAc = biological target: GalNAc(b1-3)GalNAc
Summary of the method: as §1

GalNAc(b1-4)GlcNAc = biological target: GalNAc(b1-4)GlcNAc
Summary of the method: as §1

[5] = biological target: GalNAc(b1-4)GlcNAc(b1-2)Man(a1-3)[GalNAc(b1-4)GlcNAc(b1-2)Man(a1-6)]Man(b1-4)GlcNAc(b1-4)GlcNAc
Summary of the method: as §1

Glc(a1-4)Glc = biological target: Glc(a1-4)Glc
Summary of the method: as §1

Glc(a1-6)Glc(a1-6)Glc = biological target: Glc(a1-6)Glc(a1-6)Glc
Summary of the method: as §1

Glc(b1-4)Glc = biological target: Glc(b1-4)Glc
Summary of the method: as §1

Glc(b1-6)Glc = biological target: Glc(b1-6)Glc
Summary of the method: as §1

GlcA(b1-3)Gal = biological target: GlcA(b1-3)Gal
Summary of the method: as §1

GlcA(b1-3)GlcNAc = biological target: GlcA(b1-3)GlcNAc
Summary of the method: as §1

GlcA(b1-6)Gal = biological target: GlcA(b1-6)Gal
Summary of the method: as §1

[6] = biological target: GlcNAc(a1-3)Gal(b1-4)GlcNAc
Summary of the method: as §1

[7] = biological target: GlcNAc(a1-4)Gal(b1-3)GlcNAc
Summary of the method: as §1

[8] = biological target: GlcNAc(a1-4)Gal(b1-4)GalNAc
Summary of the method: as §1

[9] = biological target: GlcNAc(a1-4)Gal(b1-4)GlcNAc
Summary of the method: as §1

[10] = biological target: GlcNAc(a1-4)Gal(b1-4)GlcNAc(b1-3)Gal(b1-4)Glc
Summary of the method: as §1

[11] = biological target: GlcNAc(a1-4)Gal(b1-4)GlcNAc(b1-3)Gal(b1-4)GlcNAc
Summary of the method: as §1

[12] = biological target: GlcNAc(a1-4)Gal(b1-4)GlcNAc(b1-3)Gal(b1-4)GlcNAc(b1-3)Gal(b1-4)GlcNAc
Summary of the method: as §1

[13] = biological target: GlcNAc(a1-4)Gal(b1-4)GlcNAc(b1-3)Gal(b1-4)[Fuc(a1-3)]GlcNAc(b1-3)Gal(b1-4)[Fuc(a1-3)]GlcNAc
Summary of the method: as §1

[14] = biological target: GlcNAc(a1-6)Gal(b1-4)GlcNAc
Summary of the method: as §1

[15] = biological target: GlcNAc(b1-2)Gal(b1-3)GalNAc
Summary of the method: as §1

[16] = biological target: GlcNAc(b1-2)Man(a1-3)[GlcNAc(b1-2)Man(a1-6)]Man(b1-4)GlcNAc(b1-4)GlcNAc
Summary of the method: as §1

[17] = biological target: GlcNAc(b1-2)Man(a1-3)[GlcNAc(b1-2)Man(a1-6)]Man(b1-4)GlcNAc(b1-4)[Fuc(a1-6)]GlcNAc
Summary of the method: as §1

[18] = biological target: GlcNAc(b1-2)[GlcNAc(b1-4)]Man(a1-3)[GlcNAc(b1-2)Man(a1-6)]Man(b1-4)GlcNAc(b1-4)GlcNAc
Summary of the method: as §1

GlcNAc(b1-3)Gal = biological target: GlcNAc(b1-3)Gal
Summary of the method: as §1

[19] = biological target: GlcNAc(b1-3)Gal(b1-3)GalNAc
Summary of the method: as §1

GlcNAc(b1-3)Gal(b1-4)Glc = biological target: GlcNAc(b1-3)Gal(b1-4)Glc
Summary of the method: as §1

[20] = biological target: GlcNAc(b1-3)Gal(b1-4)GlcNAc
Summary of the method: as §1

[21] = biological target: GlcNAc(b1-3)Gal(b1-4)GlcNAc(b1-3)Gal(b1-4)GlcNAc
Summary of the method: as §1

GlcNAc(b1-3)GalNAc = biological target: GlcNAc(b1-3)GalNAc
Summary of the method: as §1

GlcNAc(b1-3)Man = biological target: GlcNAc(b1-3)Man
Summary of the method: as §1

[22] = biological target: GlcNAc(b1-3)[GlcNAc(b1-4)][GlcNAc(b1-6)]GlcNAc
Summary of the method: as §1

[23] = biological target: GlcNAc(b1-3)[GlcNAc(b1-6)]Gal(b1-4)GlcNAc
Summary of the method: as §1

[24] = biological target: GlcNAc(b1-3)[GlcNAc(b1-6)]GalNAc
Summary of the method: as §1

[25] = biological target: GlcNAc(b1-4)Gal(b1-4)GlcNAc
Summary of the method: as §1

GlcNAc(b1-4)GlcNAc = biological target: GlcNAc(b1-4)GlcNAc
Summary of the method: as §1

[26] = biological target: GlcNAc(b1-4)GlcNAc(b1-4)GlcNAc
Summary of the method: as §1

[27] = biological target: GlcNAc(b1-4)GlcNAc(b1-4)GlcNAc(b1-4)GlcNAc(b1-4)GlcNAc
Summary of the method: as §1

B1: SBD (Rhizopus oryzae), P07683 (protein)
chain: ASIPSSASVQLDSYNYDGSTFSGKIYVKNIAYSKKVTVVYADGSDNWNNNGNIIAASFSGPISGSNYEYWTFSASVKGIKEFYIKYEVSGKTYYDNNNSANYQVS
glycan array binding signal (z-score) (Gal6S(b1-4)GlcNAc6S): -0.249
glycan array binding signal (z-score) (GalNAc(a1-3)Gal): 0.088
glycan array binding signal (z-score) (GalNAc(a1-3)GalNAc): 0.058
glycan array binding signal (z-score) [1]: -0.49
glycan array binding signal (z-score) (GalNAc(b1-3)Gal): -0.325
glycan array binding signal (z-score) [2]: -0.155
glycan array binding signal (z-score) [3]: -0.276
glycan array binding signal (z-score) [4]: -1.07
glycan array binding signal (z-score) (GalNAc(b1-3)GalNAc): -0.363
glycan array binding signal (z-score) (GalNAc(b1-4)GlcNAc): -0.299
glycan array binding signal (z-score) [5]: 0.888
glycan array binding signal (z-score) (Glc(a1-4)Glc): 0.137
glycan array binding signal (z-score) (Glc(a1-6)Glc(a1-6)Glc): -0.213
glycan array binding signal (z-score) (Glc(b1-4)Glc): -0.436
glycan array binding signal (z-score) (Glc(b1-6)Glc): -0.069
glycan array binding signal (z-score) (GlcA(b1-3)Gal): -0.294
glycan array binding signal (z-score) (GlcA(b1-3)GlcNAc): 1.04
glycan array binding signal (z-score) (GlcA(b1-6)Gal): 0.255
glycan array binding signal (z-score) [6]: 0.093
glycan array binding signal (z-score) [7]: 0.397
glycan array binding signal (z-score) [8]: 0.474
glycan array binding signal (z-score) [9]: -0.268
glycan array binding signal (z-score) [10]: 0.405
glycan array binding signal (z-score) [11]: 0.374
glycan array binding signal (z-score) [12]: 0.187
glycan array binding signal (z-score) [13]: 0.873
glycan array binding signal (z-score) [14]: -0.694
glycan array binding signal (z-score) [15]: -0.108
glycan array binding signal (z-score) [16]: -0.07
glycan array binding signal (z-score) [17]: 0.42
glycan array binding signal (z-score) [18]: -0.157
glycan array binding signal (z-score) (GlcNAc(b1-3)Gal): -0.07
glycan array binding signal (z-score) [19]: 0.153
glycan array binding signal (z-score) (GlcNAc(b1-3)Gal(b1-4)Glc): -0.082
glycan array binding signal (z-score) [20]: -0.5
glycan array binding signal (z-score) [21]: -0.27
glycan array binding signal (z-score) (GlcNAc(b1-3)GalNAc): -0.262
glycan array binding signal (z-score) (GlcNAc(b1-3)Man): 0.278
glycan array binding signal (z-score) [22]: -0.005
glycan array binding signal (z-score) [23]: -0.133
glycan array binding signal (z-score) [24]: -0.507
glycan array binding signal (z-score) [25]: 0.463
glycan array binding signal (z-score) (GlcNAc(b1-4)GlcNAc): -0.363
glycan array binding signal (z-score) [26]: -0.537
glycan array binding signal (z-score) [27]: -0.054
